Experimental data published in paper PMC4605623.
Results are given in words; binding and its absence hold for the method and conditions named. In cells and extracts the contact can be indirect. Binding can be weak; no strength is given. Sequences can lack the tags named with a protein.

The chains behind the UniProt entries cited, without tags or fusion partners. Where a name states a change or a piece, a line headed by the entry shows the natural chain unless it says otherwise.
UniProt P23258: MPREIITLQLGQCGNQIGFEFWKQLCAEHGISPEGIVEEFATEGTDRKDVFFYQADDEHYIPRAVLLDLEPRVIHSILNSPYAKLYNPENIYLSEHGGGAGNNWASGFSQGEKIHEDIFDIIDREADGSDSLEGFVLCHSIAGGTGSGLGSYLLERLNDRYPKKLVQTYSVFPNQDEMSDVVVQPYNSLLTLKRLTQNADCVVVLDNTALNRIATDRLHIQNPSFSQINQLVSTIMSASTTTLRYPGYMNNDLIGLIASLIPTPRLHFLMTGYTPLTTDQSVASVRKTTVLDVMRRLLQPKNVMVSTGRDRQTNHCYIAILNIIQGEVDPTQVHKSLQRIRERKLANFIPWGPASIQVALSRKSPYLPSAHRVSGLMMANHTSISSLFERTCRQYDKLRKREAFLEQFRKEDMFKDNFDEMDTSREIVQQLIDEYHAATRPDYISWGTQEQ

Biological target: T1, EGFP-FANCC (GFP-tagged full length FANCC) (UniProt Q00597)
T1 sequence: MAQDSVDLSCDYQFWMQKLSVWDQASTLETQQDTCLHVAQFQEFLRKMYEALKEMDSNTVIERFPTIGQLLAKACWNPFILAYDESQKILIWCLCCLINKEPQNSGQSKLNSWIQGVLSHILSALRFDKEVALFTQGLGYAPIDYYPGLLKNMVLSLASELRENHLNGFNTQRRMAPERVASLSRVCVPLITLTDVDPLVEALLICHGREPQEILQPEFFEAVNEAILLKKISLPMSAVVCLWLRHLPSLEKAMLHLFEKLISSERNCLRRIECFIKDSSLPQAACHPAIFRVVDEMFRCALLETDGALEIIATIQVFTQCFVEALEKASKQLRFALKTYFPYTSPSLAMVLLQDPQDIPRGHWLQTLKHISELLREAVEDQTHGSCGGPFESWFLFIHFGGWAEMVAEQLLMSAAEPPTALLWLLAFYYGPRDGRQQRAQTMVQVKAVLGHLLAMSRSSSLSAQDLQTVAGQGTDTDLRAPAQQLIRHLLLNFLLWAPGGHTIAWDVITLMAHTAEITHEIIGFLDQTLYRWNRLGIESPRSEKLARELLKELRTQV
Assay: co-IP; lysates of EGFP-FANCC transfected 293T cells (50 mM Tris-HCl, 150 mM NaCl, 1% Triton X-100) immunoprecipitated with anti-GFP or control mouse IgG, Dynabeads; immunoblot with anti-γ-tubulin or anti-FANCC

Substance: endogenous γ-tubulin (from UniProt P23258)
- binding: binds
